PubChem BioAssay AID743121 – NCATS | 2013

Test: 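Knock-downs that sensitise breast cancer cells to camptothecin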 (primary screen)
Cells: MDA-MB-231 cells, a human breast cancer line
Knock-down reagent: single siRNA against human genes, 20 nM siRNA (0.8 pmol per well)
Timing: 120 h (drug added 48 h after transfection, read 72 h later)
Conditions: camptothecin 20 nM (about EC30) for 72 h; vehicle 0.1% DMSO in parallel plates
Measured: 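Cell viability by ATP luminescence (CellTiter-Glo) as % of non-targeting siRNA wells, and the log2 ratio of viability without drug over viability with camptothecin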
Reading the numbers: log2 vehicle/camptothecin viability: higher = stronger sensitisation to camptothecin; viability with camptothecin: higher = more viable cells
Units: viability with camptothecin in % of control
Active means: 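Each gene scored by redundant siRNA activity (RSA) over its individual siRNA ratios; a gene is called active at p < 0.001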
The deposit covers about 26,000 reagents; this is a random part of them. 167 of all reagents (0.63%) were called active. 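Calls are per gene from RSA p-values that are not deposited; an individual active-marked siRNA can sensitise only weakly.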 Reagents against one gene are numbered here. Not all columns of the deposit are shown.

ACVR1 (activin A receptor type 1) #1 | log2 vehicle/camptothecin viability = 0.232; viability with camptothecin = 62.5; outcome = inactive
ACVR1 (activin A receptor type 1) #2 | log2 vehicle/camptothecin viability = -0.147; viability with camptothecin = 111; outcome = inactive
ACVR1 (activin A receptor type 1) #3 | log2 vehicle/camptothecin viability = -0.182; viability with camptothecin = 88.7; outcome = inactive
ACVR1 (activin A receptor type 1) #4 | log2 vehicle/camptothecin viability = -0.371; viability with camptothecin = 130; outcome = inactive
CCL5 (C-C motif chemokine ligand 5) #1 | log2 vehicle/camptothecin viability = 0.059; viability with camptothecin = 83.9; outcome = inactive
CCL5 (C-C motif chemokine ligand 5) #2 | log2 vehicle/camptothecin viability = -0.0883; viability with camptothecin = 44; outcome = inactive
CCL5 (C-C motif chemokine ligand 5) #3 | log2 vehicle/camptothecin viability = 0.00205; viability with camptothecin = 98.4; outcome = inactive
GUCY1B2 (guanylate cyclase 1 soluble subunit beta 2 (pseudogene)) #1 | log2 vehicle/camptothecin viability = -0.0984; viability with camptothecin = 103; outcome = inactive
GUCY1B2 (guanylate cyclase 1 soluble subunit beta 2 (pseudogene)) #2 | log2 vehicle/camptothecin viability = -0.367; viability with camptothecin = 29.9; outcome = inactive
GUCY1B2 (guanylate cyclase 1 soluble subunit beta 2 (pseudogene)) #3 | log2 vehicle/camptothecin viability = -0.422; viability with camptothecin = 84.8; outcome = inactive
GUCY1B2 (guanylate cyclase 1 soluble subunit beta 2 (pseudogene)) #4 | log2 vehicle/camptothecin viability = -0.0439; viability with camptothecin = 104; outcome = inactive
SRSF9 (serine and arginine rich splicing factor 9) #1 | log2 vehicle/camptothecin viability = -0.154; viability with camptothecin = 116; outcome = inactive
SRSF9 (serine and arginine rich splicing factor 9) #2 | log2 vehicle/camptothecin viability = 0.673; viability with camptothecin = 31.2; outcome = inactive
SRSF9 (serine and arginine rich splicing factor 9) #3 | log2 vehicle/camptothecin viability = 0.24; viability with camptothecin = 74.2; outcome = inactive
SRSF9 (serine and arginine rich splicing factor 9) #4 | log2 vehicle/camptothecin viability = -0.183; viability with camptothecin = 94.5; outcome = inactive
RAB8B (RAB8B, member RAS oncogene family) #1 | log2 vehicle/camptothecin viability = -0.477; viability with camptothecin = 91.8; outcome = inactive
RAB8B (RAB8B, member RAS oncogene family) #2 | log2 vehicle/camptothecin viability = -0.268; viability with camptothecin = 73.3; outcome = inactive
RAB8B (RAB8B, member RAS oncogene family) #3 | log2 vehicle/camptothecin viability = -0.597; viability with camptothecin = 66.1; outcome = inactive
RAB8B (RAB8B, member RAS oncogene family) #4 | log2 vehicle/camptothecin viability = -0.0638; viability with camptothecin = 80; outcome = inactive
PRCC (proline rich mitotic checkpoint control factor) #1 | log2 vehicle/camptothecin viability = -0.432; viability with camptothecin = 81; outcome = inactive
PRCC (proline rich mitotic checkpoint control factor) #2 | log2 vehicle/camptothecin viability = 1.46; viability with camptothecin = 12.3; outcome = inactive
PRCC (proline rich mitotic checkpoint control factor) #3 | log2 vehicle/camptothecin viability = 0.0791; viability with camptothecin = 78.1; outcome = inactive
PRCC (proline rich mitotic checkpoint control factor) #4 | log2 vehicle/camptothecin viability = -0.266; viability with camptothecin = 40.7; outcome = inactive
VSIG2 (V-set and immunoglobulin domain containing 2) #1 | log2 vehicle/camptothecin viability = -0.307; viability with camptothecin = 71.7; outcome = inactive
VSIG2 (V-set and immunoglobulin domain containing 2) #2 | log2 vehicle/camptothecin viability = 0.113; viability with camptothecin = 18.5; outcome = inactive
VSIG2 (V-set and immunoglobulin domain containing 2) #3 | log2 vehicle/camptothecin viability = -0.0325; viability with camptothecin = 27.9; outcome = inactive
MYLK2 (myosin light chain kinase 2) #1 | log2 vehicle/camptothecin viability = -0.032; viability with camptothecin = 88.5; outcome = inactive
MYLK2 (myosin light chain kinase 2) #2 | log2 vehicle/camptothecin viability = -0.62; viability with camptothecin = 74.1; outcome = inactive
MYLK2 (myosin light chain kinase 2) #3 | log2 vehicle/camptothecin viability = 0.0575; viability with camptothecin = 50.5; outcome = inactive
MYLK2 (myosin light chain kinase 2) #4 | log2 vehicle/camptothecin viability = -0.375; viability with camptothecin = 68.1; outcome = inactive
MARCO (macrophage receptor with collagenous structure) #1 | log2 vehicle/camptothecin viability = -0.613; viability with camptothecin = 75; outcome = inactive
MARCO (macrophage receptor with collagenous structure) #2 | log2 vehicle/camptothecin viability = -0.383; viability with camptothecin = 70; outcome = inactive
MARCO (macrophage receptor with collagenous structure) #3 | log2 vehicle/camptothecin viability = -0.553; viability with camptothecin = 65.2; outcome = inactive
MARCO (macrophage receptor with collagenous structure) #4 | log2 vehicle/camptothecin viability = -0.365; viability with camptothecin = 74.9; outcome = inactive
BTN1A1 (butyrophilin subfamily 1 member A1) #1 | log2 vehicle/camptothecin viability = 0.0145; viability with camptothecin = 69.5; outcome = inactive
BTN1A1 (butyrophilin subfamily 1 member A1) #2 | log2 vehicle/camptothecin viability = -0.249; viability with camptothecin = 85.6; outcome = inactive
BTN1A1 (butyrophilin subfamily 1 member A1) #3 | log2 vehicle/camptothecin viability = -0.0648; viability with camptothecin = 80.8; outcome = inactive
ID3 (inhibitor of DNA binding 3) #1 | log2 vehicle/camptothecin viability = 0.0552; viability with camptothecin = 99.7; outcome = inactive
ID3 (inhibitor of DNA binding 3) #2 | log2 vehicle/camptothecin viability = -0.00863; viability with camptothecin = 105; outcome = inactive
ID3 (inhibitor of DNA binding 3) #3 | log2 vehicle/camptothecin viability = -0.0634; viability with camptothecin = 34.5; outcome = inactive
ID3 (inhibitor of DNA binding 3) #4 | log2 vehicle/camptothecin viability = -0.059; viability with camptothecin = 97.3; outcome = inactive
RNF139 (ring finger protein 139) #1 | log2 vehicle/camptothecin viability = -0.335; viability with camptothecin = 112; outcome = inactive
RNF139 (ring finger protein 139) #2 | log2 vehicle/camptothecin viability = -0.0324; viability with camptothecin = 50.5; outcome = inactive
RNF139 (ring finger protein 139) #3 | log2 vehicle/camptothecin viability = -0.249; viability with camptothecin = 24.4; outcome = inactive
RNF139 (ring finger protein 139) #4 | log2 vehicle/camptothecin viability = -0.275; viability with camptothecin = 97.3; outcome = inactive

4 successive entries from above, quoted:
ACVR1 (activin A receptor type 1) #1 | log2 vehicle/camptothecin viability = 0.232; viability with camptothecin = 62.5; outcome = inactive
ACVR1 (activin A receptor type 1) #2 | log2 vehicle/camptothecin viability = -0.147; viability with camptothecin = 111; outcome = inactive
ACVR1 (activin A receptor type 1) #3 | log2 vehicle/camptothecin viability = -0.182; viability with camptothecin = 88.7; outcome = inactive
ACVR1 (activin A receptor type 1) #4 | log2 vehicle/camptothecin viability = -0.371; viability with camptothecin = 130; outcome = inactive
